# Data published in US12023396B2, “Flavour and fragrance compositions comprising acetophenone derivatives” (Symrise AG, priority 2014, dated 2024).
# Assay: Reduction of bathroom malodour, expert panel, filter paper in glass jar
# Procedure: Fifteen Expert panellists evaluated the samples from 500 ml wide necked glass jars. One microliter of the sample (dissolved in 9 microliters of diethylphatlate) and one microliter bathroom malodour (1% solution in Triethyl citrate) were injected on different places of a filter paper. The filter paper was placed in the glass jar and left closed for >16 hours for equilibration. Malodour intensities were evaluated on scales of 1 (odourless) to 9 (very strong) with 6 being the reference of the malodour sample. Mean and standard deviation of intensity scores were calculated from three independent experiments.
smiles,measurement,setting,value
CC(=O)c1ccc(O)cc1 [4-hydroxyacetophenone],Reduction versus malodour standard,difference to malodour standard score 6.00,3.50 scores
same,Malodour intensity scores Mean (n = 15),"scale 1 (odourless) to 9 (very strong), malodour reference = 6, >16 hours equilibration",2.50
